Source: the supplement of paper PMC12067093, “Discovery and optimisation of a covalent ligand for TRIM25 and its application to targeted protein ubiquitination” (Chemical Science, 2025)
This is one part of the list.

Amino acid sequences for entries named in this document (tags omitted). A change or cut given only in a name is not applied to a line headed by its entry.
UniProt Q99439: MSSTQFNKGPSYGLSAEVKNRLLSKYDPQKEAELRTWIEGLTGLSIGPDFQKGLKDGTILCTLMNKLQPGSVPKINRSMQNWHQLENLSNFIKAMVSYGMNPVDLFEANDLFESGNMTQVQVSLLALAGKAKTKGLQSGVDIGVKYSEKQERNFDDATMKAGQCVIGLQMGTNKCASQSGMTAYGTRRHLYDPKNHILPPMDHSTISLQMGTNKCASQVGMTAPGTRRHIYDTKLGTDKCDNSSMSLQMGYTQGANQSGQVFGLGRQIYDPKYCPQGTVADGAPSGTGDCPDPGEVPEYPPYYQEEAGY
UniProt Q9Y678: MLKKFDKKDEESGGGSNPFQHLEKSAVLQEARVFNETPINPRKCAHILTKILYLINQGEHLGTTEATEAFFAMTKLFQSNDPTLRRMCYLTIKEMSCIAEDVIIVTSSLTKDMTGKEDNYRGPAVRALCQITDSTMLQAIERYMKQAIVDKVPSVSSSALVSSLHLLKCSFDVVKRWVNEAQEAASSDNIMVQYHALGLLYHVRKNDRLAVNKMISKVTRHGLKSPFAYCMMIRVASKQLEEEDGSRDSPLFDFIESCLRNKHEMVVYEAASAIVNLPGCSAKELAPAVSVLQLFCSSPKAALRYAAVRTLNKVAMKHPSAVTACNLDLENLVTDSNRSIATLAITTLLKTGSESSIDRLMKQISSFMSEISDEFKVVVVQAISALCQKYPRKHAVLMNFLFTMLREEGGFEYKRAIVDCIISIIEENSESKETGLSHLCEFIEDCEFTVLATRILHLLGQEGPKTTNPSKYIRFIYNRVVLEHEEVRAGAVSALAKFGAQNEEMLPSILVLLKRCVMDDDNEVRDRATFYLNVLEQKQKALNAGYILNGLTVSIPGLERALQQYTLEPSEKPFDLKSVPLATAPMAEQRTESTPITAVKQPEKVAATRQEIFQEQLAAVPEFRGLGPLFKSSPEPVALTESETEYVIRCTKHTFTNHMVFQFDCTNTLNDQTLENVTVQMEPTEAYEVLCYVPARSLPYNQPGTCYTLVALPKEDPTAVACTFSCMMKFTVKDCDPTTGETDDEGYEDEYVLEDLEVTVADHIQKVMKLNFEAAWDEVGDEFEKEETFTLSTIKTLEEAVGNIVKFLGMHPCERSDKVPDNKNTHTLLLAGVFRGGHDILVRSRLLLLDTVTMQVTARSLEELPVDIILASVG
UniProt Q9UP83: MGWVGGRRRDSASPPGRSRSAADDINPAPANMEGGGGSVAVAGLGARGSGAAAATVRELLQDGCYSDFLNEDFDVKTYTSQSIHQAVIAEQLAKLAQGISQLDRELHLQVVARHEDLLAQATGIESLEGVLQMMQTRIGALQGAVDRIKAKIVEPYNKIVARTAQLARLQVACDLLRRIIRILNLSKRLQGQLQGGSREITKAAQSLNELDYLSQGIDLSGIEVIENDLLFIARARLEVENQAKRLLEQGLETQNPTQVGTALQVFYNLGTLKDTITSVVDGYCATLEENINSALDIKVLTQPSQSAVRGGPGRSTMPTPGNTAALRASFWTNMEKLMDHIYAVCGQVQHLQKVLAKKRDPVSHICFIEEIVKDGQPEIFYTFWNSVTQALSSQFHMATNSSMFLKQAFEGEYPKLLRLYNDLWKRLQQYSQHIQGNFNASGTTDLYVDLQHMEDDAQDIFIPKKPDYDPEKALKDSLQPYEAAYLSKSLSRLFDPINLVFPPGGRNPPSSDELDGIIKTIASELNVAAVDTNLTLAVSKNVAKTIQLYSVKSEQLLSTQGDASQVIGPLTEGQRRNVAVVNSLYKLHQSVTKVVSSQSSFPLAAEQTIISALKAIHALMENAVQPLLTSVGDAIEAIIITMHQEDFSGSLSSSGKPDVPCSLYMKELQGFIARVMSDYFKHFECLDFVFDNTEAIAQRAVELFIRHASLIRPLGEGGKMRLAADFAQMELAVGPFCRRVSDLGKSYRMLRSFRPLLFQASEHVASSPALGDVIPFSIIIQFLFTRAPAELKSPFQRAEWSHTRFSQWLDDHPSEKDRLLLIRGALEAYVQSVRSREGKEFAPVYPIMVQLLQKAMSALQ
UniProt Q92600, whole entry, looked up: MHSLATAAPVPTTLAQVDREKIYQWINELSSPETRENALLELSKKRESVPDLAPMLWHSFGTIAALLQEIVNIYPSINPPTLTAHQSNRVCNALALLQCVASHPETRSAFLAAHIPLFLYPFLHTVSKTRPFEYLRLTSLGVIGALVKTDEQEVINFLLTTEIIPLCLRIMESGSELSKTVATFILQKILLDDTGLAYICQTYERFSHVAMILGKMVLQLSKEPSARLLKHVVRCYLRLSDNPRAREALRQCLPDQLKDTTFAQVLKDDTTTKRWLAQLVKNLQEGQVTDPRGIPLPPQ
UniProt P21964: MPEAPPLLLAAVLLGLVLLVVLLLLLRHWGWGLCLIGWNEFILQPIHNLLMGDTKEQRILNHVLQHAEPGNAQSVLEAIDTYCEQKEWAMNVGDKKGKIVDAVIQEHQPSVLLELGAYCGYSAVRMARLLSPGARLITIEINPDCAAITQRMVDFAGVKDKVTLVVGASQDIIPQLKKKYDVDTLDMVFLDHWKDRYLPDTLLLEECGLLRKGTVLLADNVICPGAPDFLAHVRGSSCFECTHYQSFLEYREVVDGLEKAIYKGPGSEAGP
UniProt Q6P4Q7: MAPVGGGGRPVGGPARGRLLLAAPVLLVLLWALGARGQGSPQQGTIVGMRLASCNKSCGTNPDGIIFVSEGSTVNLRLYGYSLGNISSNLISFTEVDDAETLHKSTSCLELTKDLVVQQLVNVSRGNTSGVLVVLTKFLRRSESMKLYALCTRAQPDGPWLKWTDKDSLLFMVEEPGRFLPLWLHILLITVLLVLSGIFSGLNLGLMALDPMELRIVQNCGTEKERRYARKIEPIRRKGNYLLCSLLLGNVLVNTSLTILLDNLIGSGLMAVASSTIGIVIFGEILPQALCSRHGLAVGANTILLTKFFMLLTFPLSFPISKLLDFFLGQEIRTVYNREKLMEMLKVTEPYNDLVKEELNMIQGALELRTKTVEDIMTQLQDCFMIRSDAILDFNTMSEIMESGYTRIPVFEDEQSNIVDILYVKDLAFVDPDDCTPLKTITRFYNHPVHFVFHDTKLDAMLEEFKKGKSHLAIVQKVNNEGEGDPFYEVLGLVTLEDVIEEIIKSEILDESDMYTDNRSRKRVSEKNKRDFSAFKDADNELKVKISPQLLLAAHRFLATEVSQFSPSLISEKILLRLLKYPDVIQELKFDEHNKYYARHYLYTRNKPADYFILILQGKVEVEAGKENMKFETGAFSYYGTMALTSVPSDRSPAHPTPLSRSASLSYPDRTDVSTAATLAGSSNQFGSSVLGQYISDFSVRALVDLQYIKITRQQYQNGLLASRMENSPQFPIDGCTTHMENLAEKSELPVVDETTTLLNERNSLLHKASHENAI
UniProt Q5JTJ3: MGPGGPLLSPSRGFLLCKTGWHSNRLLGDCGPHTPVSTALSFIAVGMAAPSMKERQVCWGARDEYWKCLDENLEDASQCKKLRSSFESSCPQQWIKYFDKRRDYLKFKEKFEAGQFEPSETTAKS
UniProt Q86WW8: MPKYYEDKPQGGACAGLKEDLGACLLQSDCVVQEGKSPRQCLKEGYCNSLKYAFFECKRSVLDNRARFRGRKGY
UniProt Q9BT09: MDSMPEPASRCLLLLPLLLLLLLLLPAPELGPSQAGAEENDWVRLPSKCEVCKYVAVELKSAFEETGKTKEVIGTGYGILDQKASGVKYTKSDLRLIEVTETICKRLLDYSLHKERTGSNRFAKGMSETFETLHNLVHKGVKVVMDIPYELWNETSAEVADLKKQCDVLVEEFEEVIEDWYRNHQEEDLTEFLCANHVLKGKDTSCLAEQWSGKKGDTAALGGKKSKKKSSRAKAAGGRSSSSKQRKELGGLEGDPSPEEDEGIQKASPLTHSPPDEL
UniProt Q9H9Q2: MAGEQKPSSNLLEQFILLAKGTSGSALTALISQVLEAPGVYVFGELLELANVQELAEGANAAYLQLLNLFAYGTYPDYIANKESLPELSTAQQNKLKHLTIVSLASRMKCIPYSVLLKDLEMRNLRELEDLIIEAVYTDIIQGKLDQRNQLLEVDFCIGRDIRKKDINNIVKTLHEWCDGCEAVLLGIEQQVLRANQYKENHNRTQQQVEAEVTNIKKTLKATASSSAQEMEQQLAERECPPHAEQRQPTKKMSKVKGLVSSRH
UniProt P53621: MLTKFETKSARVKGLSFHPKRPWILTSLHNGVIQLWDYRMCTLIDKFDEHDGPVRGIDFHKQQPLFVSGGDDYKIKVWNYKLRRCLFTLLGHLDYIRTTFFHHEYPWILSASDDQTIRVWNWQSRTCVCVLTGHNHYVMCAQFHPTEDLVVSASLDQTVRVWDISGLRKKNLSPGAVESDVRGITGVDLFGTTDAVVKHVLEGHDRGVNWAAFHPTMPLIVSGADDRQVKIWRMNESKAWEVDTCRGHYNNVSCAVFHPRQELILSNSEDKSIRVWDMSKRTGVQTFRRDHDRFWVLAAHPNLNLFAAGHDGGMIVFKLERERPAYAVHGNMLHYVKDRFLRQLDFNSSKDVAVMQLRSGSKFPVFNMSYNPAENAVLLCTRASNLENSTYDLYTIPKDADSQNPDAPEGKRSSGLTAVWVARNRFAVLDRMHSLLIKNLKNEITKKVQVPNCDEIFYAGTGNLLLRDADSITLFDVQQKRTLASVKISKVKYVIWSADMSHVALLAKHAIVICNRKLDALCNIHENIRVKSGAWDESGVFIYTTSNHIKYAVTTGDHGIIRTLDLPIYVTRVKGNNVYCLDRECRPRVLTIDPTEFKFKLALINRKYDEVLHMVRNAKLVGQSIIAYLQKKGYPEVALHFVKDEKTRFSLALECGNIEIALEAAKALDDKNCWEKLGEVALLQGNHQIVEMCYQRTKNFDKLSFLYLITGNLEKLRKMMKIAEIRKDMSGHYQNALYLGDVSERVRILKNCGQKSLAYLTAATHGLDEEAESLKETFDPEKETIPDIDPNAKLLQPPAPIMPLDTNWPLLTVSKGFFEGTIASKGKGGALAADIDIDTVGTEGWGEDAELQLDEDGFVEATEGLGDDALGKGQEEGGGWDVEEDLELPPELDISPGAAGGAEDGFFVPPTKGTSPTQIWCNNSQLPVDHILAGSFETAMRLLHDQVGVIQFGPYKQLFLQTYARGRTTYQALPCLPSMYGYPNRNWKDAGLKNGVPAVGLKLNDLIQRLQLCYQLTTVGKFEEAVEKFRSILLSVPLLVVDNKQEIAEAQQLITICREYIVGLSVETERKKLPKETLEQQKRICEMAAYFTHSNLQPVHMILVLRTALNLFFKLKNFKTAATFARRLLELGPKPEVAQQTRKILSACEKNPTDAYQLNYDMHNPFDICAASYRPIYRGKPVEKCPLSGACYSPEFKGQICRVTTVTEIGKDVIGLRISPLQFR
UniProt P53618: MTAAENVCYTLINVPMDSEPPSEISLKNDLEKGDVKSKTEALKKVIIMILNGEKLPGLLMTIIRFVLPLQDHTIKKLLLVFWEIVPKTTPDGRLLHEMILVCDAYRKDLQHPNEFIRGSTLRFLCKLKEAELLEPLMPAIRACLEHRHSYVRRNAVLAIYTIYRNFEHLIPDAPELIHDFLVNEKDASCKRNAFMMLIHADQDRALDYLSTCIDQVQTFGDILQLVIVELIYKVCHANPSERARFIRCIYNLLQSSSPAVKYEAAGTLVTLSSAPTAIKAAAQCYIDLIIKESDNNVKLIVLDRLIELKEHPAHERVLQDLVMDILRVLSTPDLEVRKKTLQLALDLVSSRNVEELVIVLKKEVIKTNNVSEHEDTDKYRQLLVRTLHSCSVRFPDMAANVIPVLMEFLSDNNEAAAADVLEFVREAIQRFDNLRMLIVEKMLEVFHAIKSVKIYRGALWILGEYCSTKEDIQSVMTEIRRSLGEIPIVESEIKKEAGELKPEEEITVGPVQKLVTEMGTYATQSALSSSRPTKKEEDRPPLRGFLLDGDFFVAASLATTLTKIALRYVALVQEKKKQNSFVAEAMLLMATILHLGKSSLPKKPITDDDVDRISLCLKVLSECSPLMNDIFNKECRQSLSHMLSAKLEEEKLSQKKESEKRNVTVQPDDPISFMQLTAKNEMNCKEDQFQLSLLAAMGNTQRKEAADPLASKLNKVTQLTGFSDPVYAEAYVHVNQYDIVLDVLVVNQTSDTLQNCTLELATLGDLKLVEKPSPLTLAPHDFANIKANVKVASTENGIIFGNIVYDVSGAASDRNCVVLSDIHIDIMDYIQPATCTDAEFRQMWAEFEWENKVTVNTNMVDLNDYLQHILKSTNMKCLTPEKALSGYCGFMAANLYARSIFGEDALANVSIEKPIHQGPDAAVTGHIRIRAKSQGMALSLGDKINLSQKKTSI

Compound: CC1Cc2ccccc2N1C(=O)C1CCCN(C1)C(=O)CCl (mixture of isomers) [TRIM25 ligand 11 (diastereomer mixture)]
Test: probe-labelled cysteine peptide fold change vs DMSO (competition) (log2 fold change); higher = less target engagement (more negative = stronger competition)
Details: THP-1, incubation time: 4 h
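Note: competitive chemoproteomic profiling in live THP-1 cells with an iodoacetamide desthiobiotin (IA-DTB) probe, comparing probe-labelled peptide intensities in compound-treated cells against DMSO-treated controls.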

Row | Target | probe-labelled cysteine peptide fold change (10 µM) | probe-labelled cysteine peptide fold change (50 µM)
1 | CNN2_Q99439_215_CASQVGMTAPGTR (UniProt Q99439) | -0.0609 | -0.255
2 | COPG1_Q9Y678_169_CSFDVVKR (UniProt Q9Y678) | -0.129 | 0.0248
3 | COG5_Q9UP83_64_ELLQDGCYSDFLNEDFDVK (UniProt Q9UP83) | 0.0498 | 0.00309
4 | CNOT9_Q92600_252_QCLPDQLK (UniProt Q92600) | 0.0631 | 0.169
5 | COMT_P21964_207_DRYLPDTLLLEECGLLRK (UniProt P21964) | -0.173 | -0.022
6 | COPG1_Q9Y678_280_NKHEMVVYEAASAIVNLPGCSAK (UniProt Q9Y678) | -0.048 | 0.102
7 | COMT_P21964_241_GSSCFECTHYQSFLEYR (UniProt P21964) | 0.055 | -0.107
8 | COPE_O14579_212_CSPTLLLLNGQAACHMAQGR (UniProt O14579) | -0.161 | -0.302
9 | CNNM4_Q6P4Q7_108_STSCLELTK (UniProt Q6P4Q7) | -0.0265 | -0.0149
10 | COA6_Q5JTJ3_79_CLDENLEDASQCK (UniProt Q5JTJ3) | -0.263 | -0.053
11 | COA5_Q86WW8_24_EDLGACLLQSDCVVQEGK (UniProt Q86WW8) | -0.149 | 0.00124
12 | CNPY3_Q9BT09_206_DTSCLAEQWSGKK (UniProt Q9BT09) | -0.163 | -0.016
13 | COPS7B_Q9H9Q2_157_NQLLEVDFCIGR (UniProt Q9H9Q2) | -0.0213 | -0.0864
14 | COPA_P53621_514_HAIVICNR (UniProt P53621) | 0.0717 | 0.214
15 | COPB1_P53618_888_ALSGYCGFMAANLYAR (UniProt P53618) | -0.151 | -0.00451

Reformatted: results already given.
CNN2_Q99439_215_CASQVGMTAPGTR (UniProt Q99439)
  probe-labelled cysteine peptide fold change (10 µM) = -0.0609
  probe-labelled cysteine peptide fold change (50 µM) = -0.255
CNNM4_Q6P4Q7_108_STSCLELTK (UniProt Q6P4Q7)
  probe-labelled cysteine peptide fold change (10 µM) = -0.0265
  probe-labelled cysteine peptide fold change (50 µM) = -0.0149
